{
  "source": "patent US4053635A",
  "about": "“Substituted amides of 3-methyl-4-phenyl-3-butenoic acid, with a high hypolipemizing activity” (Istituto Biochimico Italiano di Loredana Lorenzini S.a.s., priority 1974, dated 1977)",
  "assay": "hyperlipemia from ethanol (Table V)",
  "type": "in vivo, Sprague-Dawley male rat",
  "settings": "gastric intubation, ethyl alcohol 10% in water 1 week (ethanol alone 16.1)",
  "protocol": "Sprague-Dawley male rat of the average weight of 150 g. ethyl alcohol 10%\nin water for 1 week (in parenthesis, the N. of animals). The substances\nhave been administered by gastric intubation at the dose of 200 and 300\nmg/kg/day. In experiments of subchronic toxicity, the diethylamide of […]",
  "data": [
    {"smiles": "CCOC(=O)C(C)(C)Oc1ccc(Cl)cc1", "note": "[chlofibrate, ethyl ester of 2-(p-chlorophenoxy)-2-methyl propanoic acid, reference compound]", "values": [
      {"measurement": "g. alcohol drunk per rat", "setting": "200 mg/kg/day", "value": 20, "unit": "g"}
    ]},
    {"smiles": "CCN(CC)C(=O)C/C(C)=C/c1ccccc1", "note": "[IIId, Diethylamide of 3-methyl-4-phenyl-3-butenoic acid]", "values": [
      {"measurement": "g. alcohol drunk per rat", "setting": "200 mg/kg/day", "value": 14.8, "unit": "g"},
      {"measurement": "g. alcohol drunk per rat", "setting": "300 mg/kg/day", "value": 13.2, "unit": "g"}
    ]}
  ]
}
